Assay results taken from paper PMC6486830.
Read-outs that look alike come from different tables or passages of the source. Results are given in words; binding and its absence hold for the method and conditions named. Binding seen in cells or lysates may run through a third protein. Some results given as binding are weak or reduced against the parent protein; the word gives no strength. Values belong to the molecule of their own block, whether it stands above or below them.

The chains behind the UniProt entries cited, without tags or fusion partners.
UniProt Q61103: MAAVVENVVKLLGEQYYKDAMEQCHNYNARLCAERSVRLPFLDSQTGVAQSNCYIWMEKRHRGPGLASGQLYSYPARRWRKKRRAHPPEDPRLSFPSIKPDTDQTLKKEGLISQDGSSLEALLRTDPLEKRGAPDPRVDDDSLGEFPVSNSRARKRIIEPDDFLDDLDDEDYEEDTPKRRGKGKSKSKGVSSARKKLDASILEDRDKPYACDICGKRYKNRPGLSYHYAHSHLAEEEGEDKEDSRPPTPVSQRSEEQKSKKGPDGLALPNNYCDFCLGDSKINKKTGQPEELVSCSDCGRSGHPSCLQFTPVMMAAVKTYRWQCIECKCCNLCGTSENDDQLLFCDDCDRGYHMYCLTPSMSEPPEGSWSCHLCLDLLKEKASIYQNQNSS
UniProt Q3TKT4: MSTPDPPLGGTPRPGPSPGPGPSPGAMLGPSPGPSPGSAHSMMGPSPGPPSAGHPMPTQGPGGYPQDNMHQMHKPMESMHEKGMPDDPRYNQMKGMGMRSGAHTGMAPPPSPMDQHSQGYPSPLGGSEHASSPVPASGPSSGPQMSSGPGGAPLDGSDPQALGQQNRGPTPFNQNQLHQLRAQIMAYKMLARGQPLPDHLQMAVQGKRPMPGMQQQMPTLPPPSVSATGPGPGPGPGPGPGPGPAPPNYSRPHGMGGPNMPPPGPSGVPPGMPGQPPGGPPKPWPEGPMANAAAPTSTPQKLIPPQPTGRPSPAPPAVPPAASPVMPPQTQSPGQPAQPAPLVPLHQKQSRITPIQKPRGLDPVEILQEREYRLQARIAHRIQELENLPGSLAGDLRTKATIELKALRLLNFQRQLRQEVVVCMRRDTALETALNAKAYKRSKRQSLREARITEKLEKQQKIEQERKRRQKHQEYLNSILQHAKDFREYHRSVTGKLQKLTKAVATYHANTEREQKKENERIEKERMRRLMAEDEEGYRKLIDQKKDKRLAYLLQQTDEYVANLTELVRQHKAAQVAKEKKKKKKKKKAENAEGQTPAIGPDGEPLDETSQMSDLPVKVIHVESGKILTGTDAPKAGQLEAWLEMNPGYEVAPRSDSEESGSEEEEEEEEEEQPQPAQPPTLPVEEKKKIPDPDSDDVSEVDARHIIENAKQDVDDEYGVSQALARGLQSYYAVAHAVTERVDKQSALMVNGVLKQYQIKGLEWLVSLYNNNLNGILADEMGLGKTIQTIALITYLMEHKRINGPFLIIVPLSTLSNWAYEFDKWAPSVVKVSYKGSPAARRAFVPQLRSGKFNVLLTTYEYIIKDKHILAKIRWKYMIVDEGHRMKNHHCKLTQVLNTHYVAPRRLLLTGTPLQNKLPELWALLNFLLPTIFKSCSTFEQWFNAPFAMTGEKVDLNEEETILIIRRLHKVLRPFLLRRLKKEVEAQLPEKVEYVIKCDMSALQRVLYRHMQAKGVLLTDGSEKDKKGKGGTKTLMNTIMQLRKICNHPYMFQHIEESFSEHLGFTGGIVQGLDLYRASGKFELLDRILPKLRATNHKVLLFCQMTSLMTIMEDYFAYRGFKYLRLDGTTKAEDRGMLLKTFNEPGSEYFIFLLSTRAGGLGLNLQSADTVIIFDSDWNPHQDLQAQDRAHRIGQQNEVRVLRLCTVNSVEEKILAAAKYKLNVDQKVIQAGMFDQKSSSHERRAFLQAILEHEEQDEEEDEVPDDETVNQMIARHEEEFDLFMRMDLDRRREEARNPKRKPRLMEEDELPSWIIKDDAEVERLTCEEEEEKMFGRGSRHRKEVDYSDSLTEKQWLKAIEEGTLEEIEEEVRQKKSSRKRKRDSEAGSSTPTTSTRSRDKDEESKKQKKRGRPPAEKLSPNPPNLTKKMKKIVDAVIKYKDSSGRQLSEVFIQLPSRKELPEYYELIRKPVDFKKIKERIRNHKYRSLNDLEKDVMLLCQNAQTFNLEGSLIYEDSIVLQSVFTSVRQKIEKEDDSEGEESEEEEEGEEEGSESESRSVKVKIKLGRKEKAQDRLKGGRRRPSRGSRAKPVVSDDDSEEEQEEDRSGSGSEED
UniProt P48432: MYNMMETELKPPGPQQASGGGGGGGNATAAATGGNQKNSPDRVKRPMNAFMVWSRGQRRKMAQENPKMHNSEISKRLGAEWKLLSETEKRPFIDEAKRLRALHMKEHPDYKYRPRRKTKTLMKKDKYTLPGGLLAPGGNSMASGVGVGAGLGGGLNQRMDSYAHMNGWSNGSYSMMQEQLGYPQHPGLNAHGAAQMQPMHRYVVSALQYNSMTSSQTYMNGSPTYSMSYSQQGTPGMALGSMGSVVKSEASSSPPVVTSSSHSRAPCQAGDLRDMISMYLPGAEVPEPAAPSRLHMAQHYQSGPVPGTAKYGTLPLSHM

Columns and labels:
[1] = biological target: DPF2 (mouse (in E14 ESCs)) (UniProt Q61103); test: co-IP; ESC lysate in 1% NP40, 50mM Tris-HCl pH7.4, 150mM NaCl, 1mM EDTA; the indicated antibodies 1 hour, Protein G Dynabeads at 4°C overnight; three washes with lysis buffer; immunoblot
[2] = biological target: DPF2 (mouse (in E14 ESCs)) (UniProt Q61103); test: as above; remark: listed apart in the source

binding [1]: binds
Molecule: BRG1 [SMARCA4] (from UniProt Q3TKT4 1-1613)

binding [1]: no binding
Molecule: SOX2 (from UniProt P48432 1-319)

binding [2]: no binding
B1: NANOG (protein, UniProt Q80Z64 1-305)
chain: MSVGLPGPHSLPSSEEASNSGNASSMPAVFHPENYSCLQGSATEMLCTEAASPRPSSEDLPLQGSPDSSTSPKQKLSSPEADKGPEEEENKVLARKQKMRTVFSQAQLCALKDRFQKQKYLSLQQMQELSSILNLSYKQVKTWFQNQRMKCKRWQKNQWLKTSNGLIQKGSAPVEYPSIHCSYPQGYLVNASGSLSMWGSQTWTNPTWSSQTWTNPTWNNQTWTNPTWSSQAWTAQSWNGQPWNAAPLHNFGEDFLQPYVQLQQNFSASDLEVNLEATRESHAHFSTPQALELFLNYSVTPPGEI
